According to article PMC10406714:
These are yes or no findings as the source states them, for the method shown. In cells and extracts the contact can be indirect. These calls come from enrichment with a bait or labelling near it, and not all partners need be listed. Sequences can lack the tags named with a protein.

By UniProt entry, the sequences of proteins in these tests, tags left out.
UniProt P25963: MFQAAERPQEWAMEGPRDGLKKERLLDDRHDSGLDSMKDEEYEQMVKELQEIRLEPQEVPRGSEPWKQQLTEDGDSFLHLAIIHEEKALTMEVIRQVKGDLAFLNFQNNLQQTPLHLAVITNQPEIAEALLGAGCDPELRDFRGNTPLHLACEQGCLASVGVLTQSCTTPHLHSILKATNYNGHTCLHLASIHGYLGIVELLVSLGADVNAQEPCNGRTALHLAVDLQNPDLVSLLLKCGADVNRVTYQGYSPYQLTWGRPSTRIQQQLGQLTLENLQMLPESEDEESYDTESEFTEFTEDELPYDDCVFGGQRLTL

Molecular target: T1, FLAG-TRIM64 (human) (UniProt A6NGJ6)
T1 sequence: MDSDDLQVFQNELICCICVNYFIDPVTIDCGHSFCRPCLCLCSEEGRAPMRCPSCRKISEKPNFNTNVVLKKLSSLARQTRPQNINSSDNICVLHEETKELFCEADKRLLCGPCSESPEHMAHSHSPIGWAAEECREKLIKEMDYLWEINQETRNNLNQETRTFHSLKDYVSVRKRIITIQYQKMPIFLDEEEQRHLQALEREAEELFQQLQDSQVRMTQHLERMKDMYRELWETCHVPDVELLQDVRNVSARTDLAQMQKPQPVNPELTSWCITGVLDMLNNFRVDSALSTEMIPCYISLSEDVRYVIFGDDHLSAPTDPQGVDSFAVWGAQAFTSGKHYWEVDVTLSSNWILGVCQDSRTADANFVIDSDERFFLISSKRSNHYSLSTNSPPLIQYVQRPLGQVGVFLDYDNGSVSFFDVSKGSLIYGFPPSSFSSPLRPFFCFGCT
Test: affinity purification with mass spectrometry; lysate of 293 T cells stably expressing Flag-TRIM64 (RIPA: 1% Triton X-100, 150 mM NaCl, 20 mM Tris pH 7.5); anti-Flag magnetic beads overnight at 4 °C; eluted with Flag peptide; SDS-PAGE, Coomassie bands excised, in-gel trypsin digestion, LC/MS

**Q.** IκBα (from UniProt P25963 1-317) was tested. Which binding did it give?
**A.** binds
